No constants are given. Whether binding was seen depends on the method and setting. Binding seen in cells or lysates may run through a third protein. Some binding calls cover weakened binding; strength is not graded here.
Tests used:
[1] = molecular target: GW182/TNRC6A (human (endogenous in MCF-7)) (UniProt Q8NDV7); assay: co-IP; endogenous proteins from precleared MCF-7 cytoplasmic lysate; anti-AGO2 or anti-GW182 armed protein A/G-agarose beads (15 ug Ab/mg lysate), overnight at 4 °C, three washes with ice cold wash buffer; Western blot of the IP fraction
[2] = molecular target: AGO2 (human (endogenous in MCF-7)) (UniProt Q9UKV8); assay: as above

The chains behind the UniProt entries cited, without tags or fusion partners.
UniProt Q8NDV7: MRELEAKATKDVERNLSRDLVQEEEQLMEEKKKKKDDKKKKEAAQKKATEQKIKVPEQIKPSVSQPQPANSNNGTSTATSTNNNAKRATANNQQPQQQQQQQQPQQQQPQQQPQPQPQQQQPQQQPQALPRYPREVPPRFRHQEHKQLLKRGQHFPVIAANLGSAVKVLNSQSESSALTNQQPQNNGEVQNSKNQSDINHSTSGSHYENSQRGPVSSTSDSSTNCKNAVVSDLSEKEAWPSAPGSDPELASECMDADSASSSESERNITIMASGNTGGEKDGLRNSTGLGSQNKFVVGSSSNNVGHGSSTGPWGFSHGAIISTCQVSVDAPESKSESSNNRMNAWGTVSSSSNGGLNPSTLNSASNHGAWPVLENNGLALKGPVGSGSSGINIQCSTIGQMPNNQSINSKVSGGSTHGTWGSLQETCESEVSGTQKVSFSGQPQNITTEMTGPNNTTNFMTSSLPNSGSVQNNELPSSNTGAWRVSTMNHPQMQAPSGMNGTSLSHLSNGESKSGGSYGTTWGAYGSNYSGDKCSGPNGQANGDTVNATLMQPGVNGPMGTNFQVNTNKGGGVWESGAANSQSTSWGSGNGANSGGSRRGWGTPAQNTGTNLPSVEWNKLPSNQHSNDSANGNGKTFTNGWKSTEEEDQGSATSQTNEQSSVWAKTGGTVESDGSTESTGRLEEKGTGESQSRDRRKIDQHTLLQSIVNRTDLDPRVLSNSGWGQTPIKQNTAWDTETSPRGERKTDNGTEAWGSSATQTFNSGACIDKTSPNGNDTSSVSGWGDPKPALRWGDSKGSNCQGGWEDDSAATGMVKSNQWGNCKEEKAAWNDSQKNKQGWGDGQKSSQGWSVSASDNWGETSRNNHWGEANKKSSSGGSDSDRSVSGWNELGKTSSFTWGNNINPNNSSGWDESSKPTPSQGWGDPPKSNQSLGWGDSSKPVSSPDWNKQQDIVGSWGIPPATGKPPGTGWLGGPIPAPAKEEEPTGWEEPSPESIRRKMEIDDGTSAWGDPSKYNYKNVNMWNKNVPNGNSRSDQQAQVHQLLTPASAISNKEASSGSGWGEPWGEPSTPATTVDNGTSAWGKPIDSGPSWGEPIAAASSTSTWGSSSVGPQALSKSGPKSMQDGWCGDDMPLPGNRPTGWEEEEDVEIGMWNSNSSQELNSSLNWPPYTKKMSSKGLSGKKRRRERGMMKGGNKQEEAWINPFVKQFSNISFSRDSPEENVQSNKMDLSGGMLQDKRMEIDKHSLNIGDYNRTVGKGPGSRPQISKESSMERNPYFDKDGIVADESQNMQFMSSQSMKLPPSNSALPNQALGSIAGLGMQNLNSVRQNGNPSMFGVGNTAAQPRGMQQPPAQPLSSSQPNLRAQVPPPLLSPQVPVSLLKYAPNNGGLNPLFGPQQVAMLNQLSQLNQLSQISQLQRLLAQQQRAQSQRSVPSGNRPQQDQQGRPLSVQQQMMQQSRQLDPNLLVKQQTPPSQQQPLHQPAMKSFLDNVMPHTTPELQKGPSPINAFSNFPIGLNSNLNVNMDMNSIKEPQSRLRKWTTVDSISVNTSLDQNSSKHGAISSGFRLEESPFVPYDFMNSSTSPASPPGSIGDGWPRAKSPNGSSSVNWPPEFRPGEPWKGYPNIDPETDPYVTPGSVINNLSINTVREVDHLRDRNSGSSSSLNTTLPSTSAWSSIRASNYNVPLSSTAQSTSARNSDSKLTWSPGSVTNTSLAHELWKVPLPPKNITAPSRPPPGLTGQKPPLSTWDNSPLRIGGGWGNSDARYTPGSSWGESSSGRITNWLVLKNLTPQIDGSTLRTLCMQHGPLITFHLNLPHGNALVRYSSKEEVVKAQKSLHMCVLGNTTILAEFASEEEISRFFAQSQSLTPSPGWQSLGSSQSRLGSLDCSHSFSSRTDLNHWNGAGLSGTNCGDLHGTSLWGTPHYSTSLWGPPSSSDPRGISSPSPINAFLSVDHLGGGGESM
UniProt Q9UKV8: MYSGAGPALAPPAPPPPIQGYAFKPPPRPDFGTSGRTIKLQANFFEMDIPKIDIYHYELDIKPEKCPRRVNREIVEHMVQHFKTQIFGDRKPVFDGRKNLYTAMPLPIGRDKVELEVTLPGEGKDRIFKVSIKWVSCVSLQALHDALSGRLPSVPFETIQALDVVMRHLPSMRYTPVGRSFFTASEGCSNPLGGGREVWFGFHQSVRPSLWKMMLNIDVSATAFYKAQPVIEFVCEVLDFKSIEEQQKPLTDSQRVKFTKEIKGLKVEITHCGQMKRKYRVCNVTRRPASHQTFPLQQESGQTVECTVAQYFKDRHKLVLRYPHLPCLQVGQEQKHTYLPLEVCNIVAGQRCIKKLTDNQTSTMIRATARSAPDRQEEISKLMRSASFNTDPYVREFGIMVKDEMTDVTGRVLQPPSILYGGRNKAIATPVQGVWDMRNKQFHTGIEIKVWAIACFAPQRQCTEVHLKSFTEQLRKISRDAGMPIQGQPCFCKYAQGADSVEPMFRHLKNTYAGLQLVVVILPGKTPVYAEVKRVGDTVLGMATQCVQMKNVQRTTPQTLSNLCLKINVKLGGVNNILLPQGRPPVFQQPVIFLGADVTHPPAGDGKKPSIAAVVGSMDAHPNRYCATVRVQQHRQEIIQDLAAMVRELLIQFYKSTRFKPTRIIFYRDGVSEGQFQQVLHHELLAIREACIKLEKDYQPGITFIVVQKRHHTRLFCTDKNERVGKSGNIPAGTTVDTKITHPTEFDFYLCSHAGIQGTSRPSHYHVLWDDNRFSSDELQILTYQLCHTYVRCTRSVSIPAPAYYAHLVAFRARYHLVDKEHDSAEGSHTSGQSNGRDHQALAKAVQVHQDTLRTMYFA

Substance | binding [1] | binding [2]
AGO2 (from UniProt Q9UKV8 1-859) | binds | –
GW182/TNRC6A (from UniProt Q8NDV7 1-1962) | – | binds

Source: paper PMC6471694
